# Laboratory results reported in paper PMC6925144, “A prospective compound screening contest identified broader inhibitors for Sirtuin 1” (Scientific Reports, 2019).
# Chains of the proteins cited; added tags and fusions are not shown. Residues count along the entry.
# UniProt Q96EB6, 2-747 limits assumed: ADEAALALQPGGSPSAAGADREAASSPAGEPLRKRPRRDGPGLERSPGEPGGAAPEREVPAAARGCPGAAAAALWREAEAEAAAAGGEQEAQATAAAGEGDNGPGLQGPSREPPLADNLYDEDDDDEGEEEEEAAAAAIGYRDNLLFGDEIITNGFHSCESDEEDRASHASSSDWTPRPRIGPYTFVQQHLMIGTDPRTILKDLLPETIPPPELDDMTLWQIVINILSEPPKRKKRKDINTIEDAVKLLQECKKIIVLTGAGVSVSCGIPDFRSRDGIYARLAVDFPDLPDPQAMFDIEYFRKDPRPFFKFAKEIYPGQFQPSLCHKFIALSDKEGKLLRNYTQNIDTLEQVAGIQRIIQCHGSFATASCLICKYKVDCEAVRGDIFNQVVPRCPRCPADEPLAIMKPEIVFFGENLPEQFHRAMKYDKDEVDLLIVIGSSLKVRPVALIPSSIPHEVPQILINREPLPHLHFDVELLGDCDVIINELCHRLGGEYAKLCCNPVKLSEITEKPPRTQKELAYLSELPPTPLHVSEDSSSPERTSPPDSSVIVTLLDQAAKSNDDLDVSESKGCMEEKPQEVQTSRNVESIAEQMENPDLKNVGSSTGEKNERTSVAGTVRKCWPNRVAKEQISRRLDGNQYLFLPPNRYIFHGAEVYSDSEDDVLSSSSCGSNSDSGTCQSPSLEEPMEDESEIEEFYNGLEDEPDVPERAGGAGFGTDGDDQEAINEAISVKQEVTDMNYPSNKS
# The full ranking holds about 3,200 compounds; the median of “TSA(with NAD+) / Primary screening (TSA) / delta Tm (K)” is about -0.04, and the highest 2% start at about 0.37. This is one part of the list.
# Biological target: NAD-dependent deacetylase Sirtuin 1 (human, UniProt Q96EB6)
# Experiment: primary screen, delta tm
# Design: single well (n = 1, as 'the same TSA')
# Conditions: 10 µM
# Procedure: A total of 3,192 compounds extracted from the proposed lists were first screened by thermal shift assay (TSA), which determined a melting temperature shift (ΔTm) of Sirtuin 1 upon the addition of a test compound at a concentration of 10 µM (n = 1) with primary hit criteria of ΔTm > 0.45 K or ΔTm < −1.5 K. Primary hits (48 compounds) were retested in the same assay at three concentrations (5, 10, 20 µM, n = 4) for hit confirmation and for dose-dependency check. Secondary hits (41 compounds) were checked their selectivity for Sirtuin 1 based on counterscreening on unrelated protein targets (bovine carbonic anhydrase (CA) and recombinant SH2 domain of hABL1 kinase (ABL1)) at three different concentrations (5, 10, 20 µM, n = 4), which yielded 38 hit compounds, hereafter referred to as TSA hits. The TSA screening above was conducted in the absence of NAD+. As noted, the structure of Sirtuin 1 is different in the presence of NAD+ and substrate. The chemical profile of TSA hits found from the different conditions could be different. […] As a result, 39 TSA hits were found.
row,SMILES,TSA(with NAD+) / Primary screening (TSA) / delta Tm (K)
1,COc1ccc(C2C(C(=O)/C=C/c3ccco3)=C(O)C(=O)N2CCN2CCOCC2)cc1 (stereo not shown),0.07
2,Cn1cc(S(=O)(=O)N2CCC(C(=O)NCCOc3ccccc3)CC2)cc1C(N)=O,0.09
3,Cc1sc(NC(=O)c2cnc3ccccc3n2)nc1-c1ccc(F)c(F)c1,0.06
4,COc1ccc(/C=C2/Oc3ccc(Br)cc3C2=O)cc1,-0.01
5,Fc1ccc(-c2cn3cc(Cl)cc(Cl)c3n2)cc1,-0.15
6,NC(=O)c1cc(NCC(=O)N2CCc3ccccc32)c(F)cc1F,-0.38
7,CCOC(=O)C1=C(COC(=O)c2sc(-c3ccco3)nc2-c2ccccc2)NC(=O)NC1,0.06
8,NC(=O)c1ccc(S(=O)(=O)N2CCN(c3ncnc4ccccc34)CC2)o1,0.05
9,NC(=O)c1ccc(/C=C/C(=O)N2CCC(C(=O)O)(c3ccccc3)CC2)cc1,0.06
10,NC(=O)c1c(NC(=O)CSc2nc3sc4c(c3c(=O)n2-c2ccccc2)CCC4)sc2c1CCC2,-0.16
11,Cc1ccc(N(C)S(=O)(=O)c2cccc(C(=O)N(C)Cc3ccccc3Cl)c2)cc1,-0.11
12,C=C(C)CNC(=S)NC(C)c1cccc(NC(=O)c2ccccc2)c1 (stereo not shown),-0.09
13,CS(=O)c1ccc(C(=O)Nc2ccccc2NC(=O)N2CCCC2)cc1 (stereo not shown),-0.15
14,Cn1ccnc1C(NCc1csc(-c2ccsc2)n1)c1cccc(F)c1 (stereo not shown),-0.01
15,COc1cccc(C2C(C(=O)c3cc4ccccc4o3)=C(O)C(=O)N2CCCN2CCOCC2)c1 (stereo not shown),0.03
16,O=C(CN(Cc1ccco1)C(=O)Cc1coc2cc(O)ccc12)Nc1ccccc1C(F)(F)F,-0.03
17,O=C(Nc1cccc(S(=O)(=O)N2CCOCC2)c1)c1cn(-c2ccccc2)nc1-c1ccc(F)cc1,0.39
18,CCC(C)(N)CC,0.08
19,CC1(C)CC1N (stereo not shown),-0.18
20,COc1ccnc(C(=O)NCC(C)(C)N2CCC(N(C)C)CC2)c1,-0.14
21,O=c1[nH]cnc2c1ncn2-c1ccccc1,-0.02
22,Cc1nc(N2CCC(C(N)=O)CC2)c2c3c(sc2n1)CCC3,0.01
23,c1ccc2c(c1)oc1c(N3CCN(Cc4cn5ccccc5n4)CC3)ncnc12,-0.09
24,CCn1c(-c2ccccc2)c(C(=O)CCl)c2ccccc21,0.01
25,CC(OC(=O)CCc1nc2ccccc2c(=O)[nH]1)C(=O)NCc1ccco1 (stereo not shown),-0.06

# Part of the list above in another layout:
row | SMILES | TSA(with NAD+) / Primary screening (TSA) / delta Tm (K)
17 | O=C(Nc1cccc(S(=O)(=O)N2CCOCC2)c1)c1cn(-c2ccccc2)nc1-c1ccc(F)cc1 | 0.39
18 | CCC(C)(N)CC | 0.08
19 | CC1(C)CC1N (stereo not shown) | -0.18
20 | COc1ccnc(C(=O)NCC(C)(C)N2CCC(N(C)C)CC2)c1 | -0.14

# Carrying on:

row,SMILES,TSA(with NAD+) / Primary screening (TSA) / delta Tm (K)
1,NCCCCF,-0.09
2,CC(C)(C)CC(N)CN (stereo not shown),-0.18
3,CCC(=O)NN,0.01
4,CCCCCCOc1ccc(C=C2C(=O)NC(=S)NC2=O)cc1,-0.05
5,CC(O)CNc1ncnc2ccsc12 (stereo not shown),0.05
6,CC(c1nc(-c2ccccc2)no1)N1CCN(c2nc(C(F)(F)F)nc3ccccc23)CC1 (stereo not shown),0.16
7,O=c1cc(COc2cccc([N+](=O)[O-])c2)nc2ccccn12,-0.03
8,Nc1ccc2c(c1)ncn2-c1ccccc1,0.07
9,O=C1CN(c2ccc(NC(=O)CCCc3nc4ccccc4[nH]3)cn2)CCN1,-0.21
10,COc1ccccc1CC(=O)Nc1cc2c(=O)[nH]cnc2cc1F,-0.13
11,O=C1NC(=O)C(=Cc2ccc(-c3ccc(Cl)c(Cl)c3)o2)C(=O)N1,-0.62
12,Cc1ccccc1C(=O)NCC(=O)OC(C)C(=O)NCc1ccco1 (stereo not shown),-0.06
13,Cc1ccc(C)n1-c1sc2c(c1C#N)CCCC2,-0.12
14,Cc1cc(C)n(CC(=O)N/N=C/c2cn(-c3ccccc3)nc2-c2cc3ccccc3oc2=O)n1,0.03
15,CCOc1nc2cc(C(=O)O[C@H]3CCOC3)ccc2[nH]1,-0.15
16,c1nc(N2CCCC3(C2)OCCO3)c2sccc2n1,0.06
17,CC(N)(CN)C1CC1 (stereo not shown),-0.01
18,Cc1cccc(Cl)c1OCC(=O)NCC(F)(F)F,-0.18
19,Cc1ccccc1OC(=O)C1CCN(S(=O)(=O)c2cc(C(N)=O)n(C)c2)CC1,-0.12
20,CC1(c2cccc(NC(=O)c3ccc4c(c3)CCC4)c2)NC(=O)NC1=O (stereo not shown),-0.13
21,O=C(Nc1cc2c(=O)[nH]cnc2cc1F)c1cccc(Cl)c1F,-0.14
22,Cc1cc(CSc2nc3ccccc3[nH]2)no1,0.06
23,NC(=O)c1ccc(COC(=O)c2ccccc2NC(=O)c2ccco2)cc1,0.09
24,COc1cc(-c2nc(-c3ccccc3)c(-c3ccccc3)[nH]2)ccc1OS(=O)(=O)c1ccc(C)cc1,0.05
25,C=CCCCCN,-0.13

row,SMILES,TSA(with NAD+) / Primary screening (TSA) / delta Tm (K)
1,Cn1c(=O)c2ccccc2n2c(COC(=O)Cn3nc(-c4ccc(F)cc4)oc3=O)nnc12,-0.03
2,O=C(CSc1nnc(NCc2ccco2)s1)Nc1ccc(N2CCCC2=O)cc1,-0.03
3,COc1cccc(C2=N/C(=C/c3cccnc3)C(=O)O2)c1,-0.18
4,COc1ccnc(N(C)C[C@H](O)CO)n1,-0.18
5,O=C(CSc1nnc(NCc2ccco2)s1)N1CCN(Cc2cccc3ccccc23)CC1,-0.09
6,CCc1ccc2c(COC(=O)c3cccc(S(=O)(=O)N(C)c4ccccc4)c3)cc(=O)oc2c1,-0.01
7,O[C@@H]1CCN(c2ncnc3ccsc23)C1,0.03
8,CN(c1ccccc1)S(=O)(=O)c1cccc(C(=O)Nc2ccc(Br)cc2Cl)c1,0.07
9,Cc1onc(-c2ccccc2)c1-c1nnc(CN2C(=O)c3ccc([N+](=O)[O-])cc3C2=O)o1,-0.01
10,CCC(N)C(N)=O (stereo not shown),0.03
11,Cn1c(=O)c2c(ncn2CC(=O)OCc2cc(=O)n3c(n2)sc2ccccc23)n(C)c1=O,-0.11
12,C=CCNc1ccc2nnc(C(F)(F)F)n2n1,-0.18
13,NC(=O)c1ccnc(N2CCN(CCO)CC2)c1,0.25
14,CN(c1ccccc1)S(=O)(=O)c1cccc(NCC(=O)Nc2ccc(Br)cc2)c1,-0.01
15,Cc1ccc(N(C)S(=O)(=O)c2cccc(C(=O)Nc3ccccc3C(F)(F)F)c2)cc1,-0.09
16,O=C(NCc1cccc(NC(=O)C2CC2)c1)c1ccc(C(=O)c2ccccc2)cc1,0.06
17,COc1ccc(NC(=O)C(=O)c2c(C)nn(-c3ccccc3)c2C)cc1OCc1cn2ccccc2n1,-0.02
18,CN(C)CCOc1ccc(C(N)=S)cc1,-0.22
19,COc1ccccc1N1C(=O)CC(Nc2ccc(C(=O)O)cc2)C1=O (stereo not shown),-0.11
20,CC(C)C(NS(=O)(=O)/C=C/c1ccccc1)C(=O)O (stereo not shown),-0.01
21,O=c1[nH]c(S)nc2c1cnn2-c1ccccc1,-0.04
22,COc1cccc(C(=O)C2=C(O)C(=O)N(CCCN3CCOCC3)C2c2ccccc2F)c1 (stereo not shown),-0.02
23,CC(CNCCS(=O)(=O)C(C)(C)C)c1ccccc1 (stereo not shown),-0.03
24,Cc1noc(C)c1COc1ccc(C(=O)N2CCCC2c2ccc[nH]2)cc1 (stereo not shown),-0.16
25,COc1ccc(NC(=S)NN)cc1OC,0.11

row,SMILES,TSA(with NAD+) / Primary screening (TSA) / delta Tm (K)
1,COc1cc(SC)ccc1C(=O)N(Cc1ccccc1)c1ccccc1,-0.16
2,CC(CN)N(C)C (stereo not shown),-0.32
3,CCN(Cc1cccc(F)c1)C(=O)c1cnc2ccccn2c1=O,-0.11
4,Cc1cccc(C=C2C(=O)NC(=S)NC2=O)c1,-0.02
5,CCC(CC)N(c1ccc(C)c(C)c1)S(=O)(=O)c1cnc2c(c1)c(=O)[nH]c(=O)n2C,-0.13
6,CC(OC(=O)CC1Oc2ccccc2NC1=O)C(=O)Nc1ccc(C(N)=O)cc1 (stereo not shown),0.02
7,CN(c1ccc(S(N)(=O)=O)cc1)S(=O)(=O)c1cccc(C#N)c1,-0.18
8,Cc1nc(NCc2cncnc2)ccc1I,-0.12
9,CCC(CO)Nc1ncnc2ccsc12 (stereo not shown),-0.01
10,Cc1ccc(C)c(CN(C)CC(N)=O)c1,-0.05
11,NCCNC1CC1,-0.04
12,O=S(=O)(NC1=NCCC1)c1cccc(NS(=O)(=O)c2ccc(C34CC5CC(CC(C5)C3)C4)cc2)c1,0.09
13,O=C(Nc1cccc(S(=O)(=O)NC2=NCCC2)c1)c1cnc2ccccc2n1,-0.11
14,COc1cc(CN(C)C(=O)c2cccc(C#N)c2)ccc1OCc1ccccc1,-0.13
15,COCCNC(=O)CSc1ccccc1C(=O)Nc1ccc(C(N)=O)cc1,-0.13
16,CC(C)c1ccc(C(NC(=O)c2cccc(C(N)=O)c2)c2cccs2)cc1 (stereo not shown),-0.05
17,CCS(=O)(=O)NCCC(=O)O,-0.03
18,COc1ccc(NS(=O)(=O)c2cccs2)cc1S(N)(=O)=O,0.01
19,Cc1nc2ccccc2c(C)c1CC(=O)Nc1ccc(N2CCN(Cc3ccccc3)CC2)cc1,-0.01
20,Cc1cc2oc(=O)cc(CN3C(=O)NC4(CCCCC4)C3=O)c2cc1C,-0.18
21,COc1ccc(-c2noc(CN3CCN(c4ncnc5sc6c(c45)CCC(C)C6)CC3)n2)cc1 (stereo not shown),-0.01
22,Cc1ccc(N(C)S(=O)(=O)c2cccc(C(=O)Nc3ccc(C)cc3C)c2)cc1,-0.13
